Some of the results follow. The main result of the screen is listed elsewhere. These columns were measured beside it and carry no call. The list favours compounds with an active or inconclusive main result. Potencies come from curve fits of mixed quality, noted in brackets.

The test can be described thus: qHTS Assay to Find Inhibitors of Chronic Active B-Cell Receptor Signaling. Particulars: ABC-DLBCL IkBa-CBG/CBR reporter, luminescence ratio (green luciferase fused to IkBa over red control in TMD8 lymphoma cells), 4 h. The gist of the method: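 Cell line TMD8 (human ABC DLBCL), stably expressing tet-inducible CBG68-IkBa fusion and CBR; IMDM/0.5% FBS; cpd up to 46 uM; dox induction, 4 h, 37C/5% CO2; dual luminescence; green/red ratio; MG132 control.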

The mark [1] stands for this setting: measured here: CBR red luminescence, cell number.

For `CCN(CC)c1ccc(NC(=O)c2ccc(NC(=O)C3CCCO3)cc2)c(C)c1` (configuration not stated), under setting [1], the AC50 was 20.6 µM [rising, single point].
Same read-out and setting: for `CCOC(=O)c1nnn(-c2nonc2-n2cccc2)c1-c1cccc([N+](=O)[O-])c1` the value was 35.5 µM [falling, single point].
Regarding `CCCCN(CCCC)c1nc2ccccc2nc1NS(=O)(=O)c1ccc(NC(C)=O)cc1`, under setting [1], the AC50 was 5.8 µM [rising, full curve, poor fit].
Turning to `O=C(Nc1cc(C(F)(F)F)ccc1N1CCCC1)c1ccc2c(c1)OCO2`, the AC50 under setting [1] is 6.51 µM [rising, partial curve].
Take `COc1ccc(C(=O)O/N=C(/c2ccccc2)c2ccncc2)cc1OC`: the AC50 under setting [1] was 11.2 µM [falling, partial curve].
Same read-out and setting: with `NC(=O)COC(=O)c1ccccc1SCC(=O)NC1CCCCCC1` the figure was 15.8 µM [falling, partial curve, poor fit]; with `C=CCC[C@@H](Cc1ccc(F)cc1)C(=O)OC[C@H]1CCCN1C(=O)[C@@H](CC=C)CC(=O)N[C@H](CO)Cc1ccccc1`, 18.4 µM [falling, partial curve, poor fit]; with `CCOc1ncccc1C(=O)OC(C)C(=O)NC(=O)NC1CCCCC1` (configuration not stated), 0.251 µM [falling, full curve, poor fit].
On to `O=C(COC(=O)c1ccco1)NCc1ccc2c(c1)OCO2`, for which, under setting [1], the AC50 was 35.5 µM [rising, partial curve, poor fit].
On the same count and under the same terms, for `COc1ccc(/C=C2\Oc3cc(OCC(=O)N4CCC[C@H]4CO)ccc3C2=O)c(OC)c1` the value was 35.5 µM [falling, single point]; for `CCN1c2ccccc2-c2nc3ccccc3n2C1c1ccccn1` (configuration not stated), 20 µM [falling, partial curve, poor fit].
On to `Cc1nn(-c2ccccc2)c(C)c1NC(=O)COC(=O)CCCOc1ccccc1`, for which the AC50 under setting [1] was 4.61 µM [falling, partial curve, poor fit].
On the same count and under the same terms, with `CN1CCN(C(=O)CN2C(=O)NC(C)(c3ccc4ccccc4c3)C2=O)CC1` (configuration not stated) the figure was 32.6 µM [rising, partial curve, poor fit].
Take `COc1ccc(S(=O)(=O)N(C)C[C@H]2Oc3ccc(NC(=O)Nc4ccc5c(c4)OCO5)cc3CC(=O)N([C@@H](C)CO)C[C@@H]2C)cc1`: the AC50 under setting [1] was 14.6 µM [rising, partial curve, poor fit].
On to `Cc1ccc(C(=O)CSc2nn3c(=O)c(C(C)(C)C)nnc3s2)cc1`, for which, under setting [1], the AC50 is 22.4 µM [falling, single point].
For the molecule `COC(=O)c1ccc(-c2noc(CN3CCCC(CNC(C)=O)C3)n2)cc1` (configuration not stated), the AC50 under setting [1] is 6.31 µM [rising, partial curve, poor fit].
Still for that read-out and setting: for `CC(C)COc1ccc(/C=C2/Sc3ccccc3C2=O)cc1` the value was 3.16 µM [falling, partial curve, poor fit].
Turning to `CCCn1c(SCC(=O)Nc2cccc(C(=O)OC)c2)nnc1-c1cccnc1`, the AC50 under setting [1] is 8.2 µM [falling, partial curve].
Still for that read-out and setting: for `CC(=O)N1CCN(C(=O)c2ccc(S(=O)(=O)Nc3ccccc3C)cc2)CC1` the value was 18.4 µM [falling, partial curve, poor fit].
On the same count and under the same terms, with `Cc1cccc(NC(=O)CSc2ncnc3sc(C)c(C)c23)n1` the figure was 10 µM [falling, partial curve, poor fit]; with `CCOc1ccc(-c2nnc3ccc(SCc4ccc(C(=O)OC)o4)nn23)cc1`, 29.1 µM [falling, single point].
Still for that read-out and setting: with `O=C(O)c1ccccc1C(=O)Nc1ccc(Oc2ccc3ccccc3c2)cc1` the figure was 7.94 µM [falling, partial curve, poor fit]; with `CCOC(=O)[C@H]1[C@H]2COc3ccccc3[C@@H]2N2C(=O)c3c(C)cc(C)cc3NC(=O)[C@@]12C`, 2.31 µM [falling, full curve, poor fit]; with `BrC(/C=N/Nc1nc(N2CCOCC2)nc(N2CCOCC2)n1)=C/c1ccccc1`, 10 µM [falling, partial curve].
Turning to `Cc1cc(=O)c(C(=O)Nc2cccc(N3CCCC3=O)c2)nn1-c1ccccc1F`, under setting [1], the AC50 is 5.17 µM [rising, full curve, poor fit].
Turning to `CN1CCN(C(=S)NC(=O)c2ccco2)CC1`, under setting [1], the AC50 is 1.58 µM [rising, partial curve, poor fit].
Consider `COc1ccc(S(=O)(=O)N(C)c2ccccc2)c2cccnc12`, for which, under setting [1], the AC50 is 11.2 µM [rising, partial curve, poor fit].
For `CCOc1ccc(C2c3cc(OC)c(OC)cc3CC(=O)N2c2ccccc2)cc1` (configuration not stated), under setting [1], the AC50 was 15.8 µM [rising, single point].
On the same count and under the same terms, with `O=C1N(Cc2cccc(Cl)c2)C[C@@H]2C[C@@H](c3cccc4ncccc34)N3CCC[C@@]123` the figure was 6.31 µM [falling, full curve]; with `Cc1ccc(-c2ccc(SCC(=O)c3ccccc3)nn2)cc1`, 29.1 µM [falling, partial curve, poor fit]; with `COC(=O)c1cc(OC)c(OC)cc1N=CC1=C(O)CC(C)(C)CC1=O`, 1.12 µM [rising, full curve, poor fit].
On the same count and under the same terms, for `COc1ccc(/C=N/NC(=O)c2cccnc2)cc1COc1ccc([N+](=O)[O-])cc1` the value was 28.2 µM [falling, single point]; for `COc1cc(-c2nc(Cc3c(F)cccc3Cl)no2)cc(OC)c1OC`, 0.316 µM [rising, full curve, poor fit].
Still for that read-out and setting: for `O=C(O)c1ccc(N/N=C/C(Br)=C/c2ccccc2)cc1` the value was 0.0891 µM [falling, full curve].
Regarding `CCCCC1=NN(C(=O)c2cccnc2)C(O)(C(F)(F)F)C1` (configuration not stated), the concentration at half-maximal activity (AC50) under setting [1] was 11.2 µM [falling, partial curve].
With `COc1ccc(Cl)cc1NC(=S)NCCC(c1ccccc1)c1ccccc1`, the AC50 under setting [1] is 13 µM [falling, partial curve].
As for `O=C(CSc1nnc(-c2c[nH]c3ccccc23)o1)c1ccccc1`, the AC50 under setting [1] was 0.316 µM [falling, full curve, poor fit].
The same measure, in the same setting: with `CCOc1ccccc1-n1c(SCC(=O)N(C(C)C)C(C)C)nnc1-c1cccnc1` the figure was 29.1 µM [falling, single point]; with `Cc1[nH]c2ccccc2c1/C=N/Nc1ccc([N+](=O)[O-])cc1S(=O)(=O)Nc1ccc(Cl)cc1`, 4.61 µM [falling, partial curve, poor fit]; with `CCCCOCCCNC(=O)c1c(-c2ccccc2)noc1C`, 4.11 µM [falling, partial curve, poor fit].
Regarding `CCc1ccc(S(=O)(=O)Nc2ccc(-c3ccc4nnc(C)n4n3)cc2)s1`, the AC50 by setting is: under setting [1], 11.6 µM [rising, partial curve]; (measured here: IkBa-CBG green luminescence) 11.6 µM [falling, partial curve].
Regarding `CCN(CC)CCCNC(=O)c1nn(-c2ccccc2OC)c(=O)c2ccccc12`, under setting [1], the AC50 is 29.1 µM [falling, single point].
The same measure, in the same setting: with `O=C(Oc1cccc(NC2=NS(=O)(=O)c3ccccc32)c1)c1ccncc1` the figure was 15.8 µM [rising, single point]; with `COc1ccc(/C=C(\C#N)C(=O)c2cccn2C)cc1`, 14.1 µM [falling, partial curve, poor fit]; with `O=C(CNC(=O)c1ccc(Br)cc1)N/N=C/c1ccc[nH]1`, 25.9 µM [rising, single point].
With `Cc1c(C(=O)OC(C)C(=O)N(C)Cc2ccccc2)oc2ccccc12` (configuration not stated), under setting [1], the AC50 is 0.58 µM [rising, full curve, poor fit].
Consider `Cc1ccc(CNC(=O)CSCc2ccccc2)cc1`, for which the AC50 under setting [1] is 0.708 µM [rising, full curve, poor fit].
Still for that read-out and setting: with `CC(C)CNC(=S)N1CCC(c2nc(-c3ccc(F)cc3)no2)CC1` the figure was 35.5 µM [falling, single point]; with `N#Cc1c(/N=C/N2CCCC2)oc(-c2ccccc2)c1-c1ccccc1`, 6.51 µM [rising, single point].
`O=C(CSc1ccccn1)Nc1ccc(F)c([N+](=O)[O-])c1`: the AC50 under setting [1] was 15.8 µM [falling, single point].
For the molecule `O=C(Nc1ccc(Br)cc1F)c1cc(S(=O)(=O)NC2CCCCC2)ccc1F`, the AC50 under setting [1] was 35.5 µM [falling, single point].
`CCCn1nc(NC(=O)c2ccncc2)c2cc3ccccc3nc21`: under setting [1], the AC50 was 7.94 µM [falling, partial curve].
Consider `O=C(O)c1ccc2c(c1)C(=O)N([C@@H](C(=O)O)C(c1ccccc1)c1ccccc1)C2=O`, for which the AC50 under setting [1] is 0.00461 µM [rising, full curve, poor fit].
On to `O=C(O)c1cc([N+](=O)[O-])c(N2CCCC2)c([N+](=O)[O-])c1`, for which, under setting [1], the AC50 was 9.2 µM [rising, partial curve, poor fit].
On the same count and under the same terms, for `CSCC[C@H](NC(=O)c1ccc(OCC2CCCO2)cc1)c1nc2ccccc2[nH]1` (some centres not stated) the value was 7.31 µM [rising, partial curve, poor fit]; for `Cc1ccc(NC(=O)C(=O)Nc2ccccn2)cc1`, 0.82 µM [falling, full curve]; for `Cn1c(CNC(=O)Nc2cccc(Cl)c2)nnc1SCc1ccccc1`, 1 µM [rising, full curve, poor fit].
Take `O=C(COc1ccccc1)NNC(=O)COc1ccc([N+](=O)[O-])cc1`: under setting [1], the AC50 was 12.6 µM [rising, partial curve, poor fit].
For `O=C(Nc1ccc(Cl)cc1)C1(S(=O)(=O)c2ccccc2)CC1`, under setting [1], the AC50 was 20.6 µM [rising, partial curve, poor fit].
Take `Fc1ccc(-c2nnc(N3CCOCC3)c3ccccc23)cc1F`: the AC50 under setting [1] is 0.794 µM [rising, full curve, poor fit].
On the same count and under the same terms, for `O=C(CN1C(=O)c2cccc3cccc1c23)Nc1ccc(S(=O)(=O)Nc2nccs2)cc1` the value was 20.6 µM [rising, single point].

Usually AC50 stands for the concentration giving half of the maximal activity seen.

These data come from PubChem BioAssay AID493014 (National Center for Advancing Translational Sciences (NCATS), 2011).
